In PubChem BioAssay AID493014 (National Center for Advancing Translational Sciences (NCATS), 2011) one finds AC50 data, which are given here for 62 molecules.

Broadly, the AC50 is the midpoint of the concentration-response curve, whichever way the signal moves.

The other results are listed elsewhere or left out. Shown are side measurements of this screen, not its main read-out; they come without a call. Compounds called inactive in the main read-out are mostly missing here. The note in brackets gives the kind of curve behind each potency; many fits are weak.

This test can be described thus: qHTS Assay to Find Inhibitors of Chronic Active B-Cell Receptor Signaling. Particulars: ABC-DLBCL IkBa-CBG/CBR reporter, luminescence ratio (green luciferase fused to IkBa over red control in TMD8 lymphoma cells), 4 h. Summed up:
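TMD8 ABC-DLBCL cells carrying doxycycline-inducible green luciferase fused to IkappaBalpha plus unfused red luciferase were exposed to compounds (up to 46 uM) for 4 hrs at 37C. Activity came from the overlap-corrected green/red luminescence ratio.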
Background: Quantitative high-throughput screening tests each substance at several concentrations.

Where [1] appears, read: measured here: CBR red luminescence, cell number.
The mark [2] stands for this setting: measured here: IkBa-CBG green luminescence.

Consider `O=C(O)COc1ccc(-c2nc(-c3ccccc3)c(-c3ccccc3)[nH]2)cc1`, for which the AC50 under setting [1] was 6.31 µM [falling, partial curve].

On to `CC(=O)N1CCN(c2ccccc2NC(=O)c2cc3ccccc3o2)CC1`, for which the AC50 under setting [1] is 11.2 µM [falling, partial curve].

`CC1(C)Cc2c(C#N)c(OCC(=O)c3ccc(Cl)cc3)nc(-c3ccco3)c2CO1`: under setting [1], the AC50 was 6.51 µM [falling, single point].

Turning to `Cc1cc(Cl)ccc1NC(=O)NC1CCN(S(=O)(=O)c2ccc(F)cc2)CC1`, the half-maximal activity concentration (AC50) under setting [1] is 20.6 µM [falling, single point].

Take `CC(=O)C1=C(c2ccccc2)NC(=O)NC1c1ccc(O)c(O)c1` (stereo not given): the AC50 under setting [1] is 35.5 µM [falling, single point].

`CSC1=N/C(=C\c2ccc(Br)o2)C(=O)S1`: the AC50 under setting [1] was 12.6 µM [rising, partial curve, poor fit].

Consider `Cc1ccc2c(c1)CCCN2CC(=O)Nc1cccc(S(=O)(=O)N2CCCC2)c1`, for which, under setting [1], the AC50 is 0.58 µM [rising, full curve, poor fit].

Turning to `CC(NC(=O)CCN1C(=O)c2ccccc2C1=O)c1ccc2c(c1)CCCC2` (stereo not given), under setting [1], the AC50 is 2.06 µM [rising, partial curve].

On to `O=C1CC(N2CCN(c3ccccc3O)CC2)C(=O)N1Cc1ccccc1` (stereo not given), for which, under setting [1], the AC50 was 22.4 µM [falling, single point].

As for `CC(=O)c1cccc(NC(=S)NC(=O)c2ccccc2Cl)c1`, the AC50 under setting [1] was 1.46 µM [falling, partial curve].

Regarding `Cn1cc(CNC(=O)C2CCC(=O)N(Cc3cccc(C(F)(F)F)c3)C2)cn1` (stereo not given), the AC50 under setting [1] was 3.16 µM [falling, partial curve, poor fit].

With `Clc1ccc(OCCCCCN2CCCC2)c(Br)c1`, the AC50 under setting [1] is 14.6 µM [falling, partial curve, poor fit].

In the case of `Nc1c(C(=O)Nc2ccccc2F)sc2nc(-c3cccnc3)ccc12`, the AC50 under setting [1] is 1.41 µM [falling, partial curve, poor fit].

Take `COc1ccc(NC(=O)/C=C/c2ccc(Br)o2)cn1`: the AC50 under setting [1] was 10 µM [falling, partial curve, poor fit].

As for `CCCC(=O)N1CCN(c2ccc(NC(=O)c3cc4ccccc4o3)cc2Cl)CC1`, the AC50 is 4.11 µM [falling, full curve] under setting [1] and 16.4 µM [rising, partial curve, poor fit] under setting [2].

Regarding `CC(=O)Nc1ccc(NC(=O)C(C)OC(=O)c2cc(S(=O)(=O)N3CCOCC3)ccc2Cl)cc1` (stereo not given), the AC50 under setting [1] is 6.51 µM [rising, partial curve, poor fit].

With `c1ccc2c(c1)CCN(c1nc3cc4c(cc3s1)OCCO4)C2`, the AC50 under setting [1] was 10 µM [falling, partial curve, poor fit].

As for `COc1ccc(Cn2nnnc2C(c2ccccc2Cl)N2CCC(C(N)=O)CC2)cc1` (stereo not given), the AC50 under setting [1] was 5.62 µM [rising, single point].

In the case of `COc1ccc(Cl)cc1NC(=O)c1c(NCc2cccnc2)sc2c1CCC(C)C2` (stereo not given), the AC50 under setting [1] is 10 µM [falling, partial curve].

As to `O=C(NCc1ccc(F)cc1)c1cc2c(s1)CS(=O)(=O)C2`, the AC50 under setting [1] is 17.8 µM [falling, partial curve, poor fit].

As to `COC(=O)C1=C(C)N(CCc2ccc(OC)c(OC)c2)C(=O)C1`, the concentration at half-maximal activity (AC50) under setting [1] was 5.17 µM [falling, partial curve, poor fit].

Take `CN(C)C(CNC(=O)CCc1nc2cc(Cl)ccc2n(Cc2ccccc2)c1=O)c1ccccc1` (stereo not given): under setting [1], the half-maximal activity concentration (AC50) is 29.1 µM [falling, single point].

Take `CN(C)c1ccc(/C=N\NC(=O)CC#N)cc1`: the AC50 under setting [1] was 8.91 µM [falling, partial curve, poor fit].

`Cc1cc(CNC(=O)COc2ccccc2)c2ccccc2n1`: under setting [1], the AC50 is 3.16 µM [rising, partial curve].

As for `Nc1c(NCCC2=CCCCC2)c(=O)[nH]c(=O)n1Cc1ccccc1`, the AC50 under setting [1] is 11.2 µM [falling, partial curve, poor fit].

Consider `CN(C)S(=O)(=O)c1ccc(C(=O)OCC2CCCO2)cc1` (stereo not given), for which the AC50 under setting [1] was 35.5 µM [rising, single point].

As to `COC(=O)n1ccc(C(=O)Nc2ccccc2F)n1`, the AC50 under setting [1] was 35.5 µM [falling, single point].

For `Cn1nc(C(F)(F)F)c(-c2cccc(C(F)(F)F)c2)c1NC(=O)c1ccco1`, the AC50 under setting [1] is 0.112 µM [falling, full curve, poor fit].

With `CC(=O)Nc1nc(-c2ccc([N+](=O)[O-])cc2)cs1`, under setting [1], the AC50 is 3.55 µM [rising, full curve].

For `O=C(O)CCCCCN1C(=O)C(O)=C(C(=O)/C=C/c2ccccc2)C1c1ccccc1[N+](=O)[O-]` (stereo not given), the AC50 under setting [1] is 15.8 µM [falling, partial curve, poor fit].

Consider `O=c1oc(-c2ccccc2Cl)nc2ccsc12`, for which the AC50 under setting [1] is 29.1 µM [rising, single point] and the AC50 under setting [2] is 29.1 µM [falling, single point].

Take `COc1ccccc1/C=N/OCc1ccc(C#N)cc1`: under setting [1], the AC50 was 4.47 µM [rising, partial curve, poor fit].

For `COc1cc2nc(SCc3ccc(Cl)cc3Cl)n(Cc3cccs3)c(=N)c2cc1OC`, the AC50 under setting [2] is 12.6 µM [rising, partial curve, poor fit].

As for `CNC(=O)c1ccc(-c2cc(C(F)(F)F)nn2C)s1`, the AC50 under setting [1] was 6.31 µM [rising, partial curve].

As to `COc1cccc(NC(=O)c2ccc(-n3cccn3)nc2)c1`, the half-maximal activity concentration (AC50) under setting [1] is 3.16 µM [falling, partial curve, poor fit].

Consider `C/C(N)=C(/C#N)C(=O)COC(=O)c1cccc(C)c1O`, for which, under setting [1], the AC50 was 20 µM [rising, partial curve, poor fit].

On to `C(=C\c1ccco1)/c1nc2ccccc2[nH]1`, for which the AC50 under setting [1] was 7.08 µM [falling, partial curve].

Consider `Cc1ccc(-c2ccc(/C=C3\C(=O)ON=C3c3ccccc3)o2)c([N+](=O)[O-])c1`, for which, under setting [1], the AC50 is 11.2 µM [falling, partial curve, poor fit].

For the molecule `COC(=O)C(C)N(C(=O)c1ccc(C(=O)c2ccccc2)cc1)c1c(C)cccc1C` (stereo not given), the AC50 under setting [1] was 23.1 µM [falling, single point].

Regarding `Cc1cc(C)c(NC(=O)CNC(=O)c2cc([N+](=O)[O-])ccc2N2CCOCC2)c(C)c1`, under setting [1], the AC50 is 0.092 µM [rising, full curve, poor fit].

Regarding `S=c1[nH]nc(NCCCN2CCOCC2)s1`, under setting [1], the AC50 is 17.8 µM [rising, partial curve, poor fit].

With `COc1cccc(N=Nc2ccc(O)c3ncccc23)c1`, under setting [1], the AC50 was 10 µM [falling, partial curve, poor fit].

As for `COc1ccccc1NC(=O)COC(=O)c1[nH]c(=O)[nH]c(=O)c1N`, under setting [1], the AC50 was 32.6 µM [falling, single point].

Turning to `CSc1cccc(NC(=O)C2(S(=O)(=O)c3ccc(C)cc3)CC2)c1`, the AC50 under setting [1] was 35.5 µM [rising, single point].

`CCOc1ccc(Br)cc1C(=O)Nc1ccc(C(=O)NCC(C)C)cc1`: the AC50 under setting [1] is 20.6 µM [rising, single point].

As for `C/C(=N\N=C(/N)SC1CC(=O)N(c2ccc(Br)cc2)C1=O)c1cccs1` (stereo not given), under setting [1], the AC50 was 39.8 µM [falling, partial curve, poor fit].

For `CN(C(=O)COC(=O)c1cc(S(=O)(=O)N2CCCCC2)ccc1N1CCOCC1)C1CCS(=O)(=O)C1` (stereo not given), the AC50 under setting [1] was 31.6 µM [rising, single point].

Take `CCOC(=O)Nc1nc(-c2ccccc2)c(C(=O)c2ccccc2)s1`: under setting [1], the AC50 is 14.6 µM [rising, partial curve, poor fit].

`CCCCCCCCCCOC(=O)Cn1c(COc2ccc(OC)cc2)[n+](C)c2ccccc21`: the AC50 under setting [1] was 11.2 µM [falling, single point].

As to `COc1ccc(C(C)=O)cc1COC(=O)CSC(C)C(=O)Nc1cc(C)on1` (stereo not given), the half-maximal activity concentration (AC50) under setting [1] was 29.1 µM [rising, single point].

Take `Cc1nc(C)c(-c2csc(Nc3ccccn3)n2)s1`: the half-maximal activity concentration (AC50) under setting [1] is 31.6 µM [falling, single point].

Regarding `CCOc1ccc(/C=N/NC(=O)c2ccccc2C)cc1CN1CC2CC(C1)c1cccc(=O)n1C2` (stereo not given), the AC50 under setting [1] was 29.1 µM [falling, single point].

Regarding `CCOc1ncccc1C(=O)N1CCN(c2cc(Cl)ccc2C)CC1`, the AC50 is, setting by setting: under setting [1], 11.2 µM [rising, partial curve, poor fit]; under setting [2], 12.6 µM [falling, partial curve].

For `CCc1nnc(NC(=O)COc2ccc(N(C)S(=O)(=O)c3ccc(C)cc3)cc2)s1`, the AC50 under setting [1] was 4.47 µM [rising, single point].

Consider `O=C(CCc1ccccc1)NNC(=S)NC(=O)c1ccc(Cl)cc1`, for which the AC50 under setting [1] is 3.26 µM [rising, single point].

Take `C=CCNC(=O)c1onc(CSc2ccc(F)c(F)c2)c1C(=O)O`: the AC50 under setting [1] was 0.251 µM [falling, full curve, poor fit].

As for `O=C(CCCCCNc1nc(=S)[nH]c2ccccc12)NCCc1c[nH]c2ccccc12`, the AC50 under setting [1] was 10.3 µM [falling, partial curve, poor fit].

`CCc1ccc(-c2cc(C)no2)cc1S(=O)(=O)N1CCCN(Cc2ccc(F)cc2)C1`: the AC50 under setting [1] is 11.2 µM [falling, partial curve, poor fit].

In the case of `CC(Oc1ccc2c(-c3ccccc3)cc(=O)oc2c1)C(=O)NCc1ccccn1` (stereo not given), the AC50 under setting [1] was 17.8 µM [rising, single point].

On to `O=C(NCCc1cccs1)C1CC(c2cccc(F)c2)=NO1` (stereo not given), for which the AC50 under setting [1] is 35.5 µM [falling, single point].

As to `CCN=c1scc(C)n1/N=C/c1cc(Br)c(O)c(OC)c1`, the half-maximal activity concentration (AC50) under setting [1] is 0.501 µM [rising, partial curve, poor fit].

Take `CCOC(=O)c1sc(NC(=O)CCc2ccccc2)nc1C`: under setting [1], the AC50 is 0.316 µM [falling, full curve, poor fit].
